No constants are given. Whether binding was seen depends on the method and setting. For some of these results: Binding seen in cells or lysates may run through a third protein. Some binding calls cover weakened binding; strength is not graded here. For some of these results: Sequences can lack the tags named with a protein. Each block holds one molecule with its values, some of them ahead of it.
Assays:
[1] = target: Smad3 (Sma and Mad homologue 3) of mouse lung pericytes (mouse (endogenous in mouse lung pericytes)) (UniProt Q8BUN5); assay: co-IP; Pierce Co-Immunoprecipitation Kit; the cells' own proteins in lysates of mouse lung pericytes; with or without TGF-β1 (5 ng/mL, 1 h or 2 h); in Figure 6B cells also transfected with FoxM1- and TIF1γ-expressing plasmids, in Figure 6E with Smad3 siRNAs or negative control
[2] = target: recombinant GST-Smad3 (Sma and Mad homologue 3) (UniProt Q8BUN5); assay: pull-down; GST-Smad3 incubated with His-FoxM1; Pierce GST Protein Interaction Pull-Down Kit; resins washed with PBS; Western blotting with antibodies targeting FoxM1; both purified
[3] = target: Smad3 (Sma and Mad homologue 3) of mouse lung pericytes (mouse (endogenous in mouse lung pericytes)) (UniProt Q8BUN5); assay: co-IP; Pierce Co-Immunoprecipitation Kit; the cells' own proteins in lysates of mouse lung pericytes; with or without TGF-β1 (5 ng/mL, 1 h or 2 h); in Figure 6B cells also transfected with FoxM1- and TIF1γ-expressing plasmids, in Figure 6E with Smad3 siRNAs or negative control; remark: listed apart in the source
[4] = target: phosphorylated Smad3 of mouse lung pericytes (mouse (endogenous in mouse lung pericytes)) (UniProt Q8BUN5); assay: as above
[5] = target: T1, exogenous Smad4 expressed in mouse lung pericytes, P97471; assay: co-IP; Pierce Co-Immunoprecipitation Kit; mouse lung pericytes transfected with the indicated plasmids, with or without FoxM1 overexpression; TGF-β1 5 ng/mL for 16 h (Smad4 with TIF1γ) or 2 h (Smad3 with TIF1γ); conditions: remark: other sources report otherwise
T1 chain: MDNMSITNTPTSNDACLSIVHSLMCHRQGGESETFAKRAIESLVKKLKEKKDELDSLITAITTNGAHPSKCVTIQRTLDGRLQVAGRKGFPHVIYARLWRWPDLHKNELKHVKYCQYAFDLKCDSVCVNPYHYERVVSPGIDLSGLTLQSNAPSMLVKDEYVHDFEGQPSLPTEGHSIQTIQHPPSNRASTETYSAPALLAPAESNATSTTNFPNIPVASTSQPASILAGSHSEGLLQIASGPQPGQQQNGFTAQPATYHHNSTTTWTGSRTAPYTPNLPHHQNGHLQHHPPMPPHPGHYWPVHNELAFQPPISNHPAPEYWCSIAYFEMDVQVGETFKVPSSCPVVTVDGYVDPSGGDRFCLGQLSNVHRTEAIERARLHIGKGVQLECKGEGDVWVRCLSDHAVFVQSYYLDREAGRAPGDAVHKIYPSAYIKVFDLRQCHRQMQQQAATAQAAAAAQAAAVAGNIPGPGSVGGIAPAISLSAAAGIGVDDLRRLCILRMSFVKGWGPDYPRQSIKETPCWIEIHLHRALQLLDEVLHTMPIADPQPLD

By UniProt entry, the sequences of proteins in these tests, tags left out.
UniProt Q8BUN5: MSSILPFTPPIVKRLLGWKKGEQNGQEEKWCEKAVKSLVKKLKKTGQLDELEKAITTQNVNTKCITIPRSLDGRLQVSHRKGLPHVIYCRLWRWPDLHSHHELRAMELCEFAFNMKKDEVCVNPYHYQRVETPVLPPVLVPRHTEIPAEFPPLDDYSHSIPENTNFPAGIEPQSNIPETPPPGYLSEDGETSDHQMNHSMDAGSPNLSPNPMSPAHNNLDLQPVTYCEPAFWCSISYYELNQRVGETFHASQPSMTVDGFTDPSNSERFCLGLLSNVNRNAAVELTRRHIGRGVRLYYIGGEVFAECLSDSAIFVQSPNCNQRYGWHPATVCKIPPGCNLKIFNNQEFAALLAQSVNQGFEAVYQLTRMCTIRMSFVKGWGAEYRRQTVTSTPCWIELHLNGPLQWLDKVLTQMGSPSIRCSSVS

[6] = target: T2, Smad4 (Sma and Mad homologue 4) of mouse lung pericytes (mouse (endogenous in mouse lung pericytes)), P97471; assay: co-IP; Pierce Co-Immunoprecipitation Kit; the cells' own proteins in lysates of mouse lung pericytes; with or without TGF-β1 (5 ng/mL, 1 h or 2 h); in Figure 6B cells also transfected with FoxM1- and TIF1γ-expressing plasmids, in Figure 6E with Smad3 siRNAs or negative control; conditions: remark: other sources report otherwise
T2 chain: T1 chain

[7] = target: Smad3 (Sma and Mad homologue 3) of mouse lung pericytes (mouse (endogenous in mouse lung pericytes)) (UniProt Q8BUN5); assay: co-IP; Pierce Co-Immunoprecipitation Kit; mouse lung pericytes transfected with the indicated plasmids, with or without FoxM1 overexpression; TGF-β1 5 ng/mL for 16 h (Smad4 with TIF1γ) or 2 h (Smad3 with TIF1γ)

Molecule: Smad4 (Sma and Mad homologue 4) of mouse lung pericytes (from UniProt P97471 1-551)
- binding [1]: binds

B2: endogenous FoxM1 (Forkhead box M1) of mouse lung pericytes (protein, UniProt O08696 1-760)
chain: MRTSPRRPLILKRRRLPLPVQNAPSETSEEEAKRSPAQPEPAPAQASQEVAESSSCKFPAGIKIINHPTTPNTQVVAIPSNADIQSIITALTAKGKESGTSGPNRFILISSGGPSSHPSQPQAHSSRDSKRAEVITETLGPKPAAKGVPVPKPPGAPPRQRQESYAGGEAAGCTLDNSLTNIQWLGKMSSDGLGPCSVKQELEEKENCHLEQNRVKVEEPSGVSTSWQDSVSERPPYSYMAMIQFAINSTERKRMTLKDIYTWIEDHFPYFKHIAKPGWKNSIRHNLSLHDMFVRETSANGKVSFWTIHPSANRHLTLDQVFKPLEPGSPQSPEHLESQQKRPNPELHRNVTIKTEIPLGARRKMKPLLPRVSSYLEPIQFPVNQSLVLQPSVKVPFRLAASLMSSELARHSKRVRIAPKVLLSSEGIAPLPATEPPKEEKPLLGGEGLLPLLPIQSIKEEEMQPEEDIAHLERPIKVESPPLEEWPSPCASLKEELSNSWEDSSCSPTPKPKKSYCGLKSPTRCVSEMLVTKRREKREVSRSRRKQHLQPPCLDEPDLFFPEDSSTFRPAVELLAESSEPAPHLSCPQEEGGPFKTPIKETLPVSSTPSKSVLSRDPESWRLTPPAKVGGLDFSPVRTPQGAFGLLPDSLGLMELNTTPLKSGPLFDSPRELLNSEPFDLASDPFGSPPPPHVEGPKPGSPELQIPSLSANRSLTEGLVLDTMNDSLSKILLDISFPGLEEDPLGPDNINWSQFIPELR
- binding [3]: binds
- binding [4]: binds

B4: TIF1γ (transcriptional intermediary factor 1 γ) of mouse lung pericytes, Q99PP7 1-1142 (protein)
chain: MAENKGGGEAESGGGGSGSAPVTAGAAGPTAQEAEPPLAAVLVEEEEEEGGRAGAEGGAAGPDDGGVAAASSSSAPAASVPAASVGSAVPGGAASTPAPAAAPAPAPAPAPAPAPAPAPAPAPGSSSGPPLGPPASLLDTCAVCQQSLQSRREAEPKLLPCLHSFCLRCLPEPERQLSVPIPGGSNGDVQQVGVIRCPVCRQECRQIDLVDNYFVKDTSEAPSSSDEKSEQVCTSCEDNASAVGFCVECGEWLCKTCIEAHQRVKFTKDHLIRKKEDVSESVGTSGQRPVFCPVHKQEQLKLFCETCDRLTCRDCQLLEHKEHRYQFLEEAFQNQKGAIENLLAKLLEKKNYVHFAATQVQNRIKEVNETNKRVEQEIKVAIFTLINEINKKGKSLLQQLENVTKERQMKLLQQQNDITGLSRQVKHVMNFTNWAIASGSSTALLYSKRLITFQLRHILKARCDPVPAANGAIRFHCDPTFWAKNVVNLGNLVIESKPAPGYTPNVVVGQVPPGTNHISKTPGQINLAQLRLQHMQQQVYAQKHQQLQQMRLQQPPAPIPTTTATTQQHPRQAAPQMLQQQPPRLISVQTMQRGNMNCGAFQAHQMRLAQNAARIPGIPRHSAPQYSMMQPHLQRQHSNPGHAGPFPVVSAHNPINPTSPTTATMANANRGPTSPSVTAIELIPSVTNPENLPSLPDIPPIQLEDAGSSSLDNLLSRYISGSHLPPQPTSTMNPSPGPSALSPGSSGLSNSHTPVRPPSTSSTGSRGSCGSSGRTAEKSAHSFKSDQVKVKQEPGTEEEICSFSGAVKQEKTEDGRRSACMLSSPESSLTPPLSTNLHLESELDTLTGLENHVKTEPTDISESCKQSGLSNLVNGKSPIRNLMHRSARIGGDGNSKDDDPNEDWCAVCQNGGDLLCCEKCPKVFHLTCHVPTLLSFPSGDWICTFCRDIGKPEVEYDCDNMQHSKKGKTAQGLSPVDQRKCERLLLYLYCHELSIEFQEPVPVSIPNYYKIIKKPMDLSTVKKKLQKKHSQHYQIPDDFVADVRLIFKNCERFNEMMKVVQVYADTQEINLKGDSEVAKAGKAVALYFEDKLSEIYSDRTFTPLPEFEQDEDDGEVTEDSDEDFIQPRRKRLKSDERPVHIK
- binding [6]: binds

B5: overexpressed TIF1γ (transcriptional intermediary factor 1 γ) in mouse lung pericytes (protein, UniProt Q99PP7 1-1142)
chain: B4 chain
- binding [7]: binds

Other lines, results leading:

- binding [2]: binds
B1: recombinant 6X His-tagged FoxM1 (Forkhead box M1) (protein, UniProt O08696 1-760)
chain: B2 chain

- binding [5]: binds
B3: overexpressed TIF1γ (transcriptional intermediary factor 1 γ) in mouse lung pericytes, Q99PP7 1-1142 (protein)
chain: B4 chain
